Results deposited as PubChem BioAssay AID1259303 (Sanger Institute, 2017)
In all, the deposit lists 160 reagents; this is an unselected part. 11 of all reagents (6.9%) were called active. 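Viability capped at 1; how the synergy score is calculated is not stated; four separate siRNAs target each gene.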 Reagents against one gene are numbered here. Not given: the amount of reagent, the time to read-out.

- Test: 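Kinase knock-downs that boost colorectal cancer cell killing by anticancer drugs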 (follow-up of hits)
- Cell system: human COLO320HSR colorectal cancer cells
- Reagents: single siRNA against human genes
- Conditions: anchor drug BYL719 (1 µM), cetuximab (5 µg/ml) or trametinib (10 nM), or DMSO vehicle alone
- Detection: 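Synergy of each knock-down with BYL719 (1 µM), cetuximab (5 µg/ml) or trametinib (10 nM) versus drug alone, plus mean viability normalised to non-targeting pool 2 siRNA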
- Reading the numbers: synergy score with BYL719: higher = stronger combined killing with BYL719; synergy score with cetuximab: higher = stronger combined killing with cetuximab; synergy score with trametinib: higher = stronger combined killing with trametinib; viability, siRNA alone (DMSO): higher = more viable cells
- Active means: 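Called active if the synergy score tops 0.10 with BYL719, cetuximab or trametinib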
- Meaning of the calls: active = synergy with at least one drug; inactive = no synergy found

Gene | reagent | synergy score with BYL719 | synergy score with cetuximab | synergy score with trametinib | viability, siRNA alone (DMSO) (fraction of control) | call
IRAK3 (interleukin 1 receptor associated kinase 3) | 1 | -0.201 | -0.0269 | -0.201 | 0.799 | inactive
IRAK3 (interleukin 1 receptor associated kinase 3) | 2 | -0.102 | -0.0117 | -0.0405 | 0.959 | inactive
IRAK3 (interleukin 1 receptor associated kinase 3) | 3 | -0.196 | -0.0256 | -0.201 | 0.713 | inactive
IRAK3 (interleukin 1 receptor associated kinase 3) | 4 | -0.118 | -0.0492 | -0.0214 | 0.951 | inactive
NLK (nemo like kinase) | 1 | -0.095 | 0 | 0 | 1 | inactive
NLK (nemo like kinase) | 2 | -0.00593 | 0.0097 | -0.0561 | 0.939 | inactive
NLK (nemo like kinase) | 3 | -0.303 | 0 | 0 | 1 | inactive
NLK (nemo like kinase) | 4 | -0.046 | 0 | 0 | 1 | inactive
MARK3 (microtubule affinity regulating kinase 3) | 1 | -0.137 | -0.14 | -0.14 | 0.86 | inactive
MARK3 (microtubule affinity regulating kinase 3) | 2 | -0.0538 | 0 | 0 | 1 | inactive
MARK3 (microtubule affinity regulating kinase 3) | 3 | -0.376 | -0.109 | -0.172 | 0.828 | inactive
MARK3 (microtubule affinity regulating kinase 3) | 4 | -0.198 | -0.138 | -0.218 | 0.714 | inactive
PFKFB3 (6-phosphofructo-2-kinase/fructose-2,6-biphosphatase 3) | 1 | -0.129 | -0.00304 | -0.00304 | 0.997 | inactive
PFKFB3 (6-phosphofructo-2-kinase/fructose-2,6-biphosphatase 3) | 2 | -0.178 | -0.0369 | -0.125 | 0.747 | inactive
PFKFB3 (6-phosphofructo-2-kinase/fructose-2,6-biphosphatase 3) | 3 | -0.188 | -0.0171 | -0.0171 | 0.983 | inactive
PFKFB3 (6-phosphofructo-2-kinase/fructose-2,6-biphosphatase 3) | 4 | -0.0658 | 0.0284 | -0.0471 | 0.953 | inactive
CHD4 (chromodomain helicase DNA binding protein 4) | 1 | -0.139 | -0.0564 | -0.178 | 0.669 | inactive
CHD4 (chromodomain helicase DNA binding protein 4) | 2 | -0.327 | 0.0311 | -0.299 | 0.638 | inactive
CHD4 (chromodomain helicase DNA binding protein 4) | 3 | -0.0534 | 0.093 | -0.127 | 0.873 | inactive
CHD4 (chromodomain helicase DNA binding protein 4) | 4 | -0.216 | -0.0748 | -0.228 | 0.772 | inactive
PRAG1 (PEAK1 related, kinase-activating pseudokinase 1) | 1 | 0.0638 | 0.0387 | -0.288 | 0.712 | inactive
PRAG1 (PEAK1 related, kinase-activating pseudokinase 1) | 2 | 0.0962 | 0.0124 | -0.031 | 0.878 | inactive
PRAG1 (PEAK1 related, kinase-activating pseudokinase 1) | 3 | -0.0578 | -0.198 | -0.182 | 0.702 | inactive
PRAG1 (PEAK1 related, kinase-activating pseudokinase 1) | 4 | 0.11 | -0.0958 | -0.2 | 0.8 | active
